Record: PubChem BioAssay AID1259254 (NCATS, 2017)

Aim: 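Finding genes that stop cells copying their DNA twice in one cycle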 (primary screen)
System: human HCT116 colorectal cancer cells
Reagent: single siRNA against human genes
Timing: 3 days
Detection: 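Imaged Hoechst DNA stain sorts each cell into a cycle phase by DNA amount; per plate, G2 fraction set to 0% for non-targeting and 100% for GMNN siRNA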
Direction: G2 robust z-score and G2 cells, % of GMNN control: higher = more G2 cells, more excess DNA replication
Active means: 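An siRNA counts as active if its G2 robust z-score lies at least 5 MADs above the screen median; here such calls match roughly 38% of GMNN control or more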
The whole screen tested about 59,000 reagents; below is a part drawn at random. About 1,550 of them (2.6%) were called active. 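G2 share is only a proxy for re-replication; each gene was hit by three separate siRNAs, and active genes were retested.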 Entries without a mark were called inactive. Reagents against one gene are numbered here. Further read-outs or replicates are left out here. No sequences are given here. The record does not give: the amount of reagent.

For ABCE1 (GeneID 6059) #1, how do the results read?
G2 robust z-score: 3.93; G2 cells, % of GMNN control: 30.6

What did the screen give for ABCE1 (GeneID 6059) #2?
G2 robust z-score: -0.167; G2 cells, % of GMNN control: 1.79

For ABCE1 (GeneID 6059) #3, what does the deposit list?
G2 robust z-score: 0.237; G2 cells, % of GMNN control: 4.64

For HCLS1 (GeneID 3059) #1, how do the results read?
G2 robust z-score: 0.34; G2 cells, % of GMNN control: 5.36

With HCLS1 (GeneID 3059) #2, what does the deposit list?
G2 robust z-score: 0.96; G2 cells, % of GMNN control: 9.72

With HCLS1 (GeneID 3059) #3, how do the results read?
G2 robust z-score: 1.53; G2 cells, % of GMNN control: 13.7

For MYADML2 (GeneID 255275) #1, what does the deposit list?
G2 robust z-score: 3.38; G2 cells, % of GMNN control: 26.8

For MYADML2 (GeneID 255275) #2, what was measured?
G2 robust z-score: 0.947; G2 cells, % of GMNN control: 9.63

Which result is listed for MYADML2 (GeneID 255275) #3?
G2 robust z-score: -0.00915; G2 cells, % of GMNN control: 2.9

With STIL (GeneID 6491) #1, what was measured?
G2 robust z-score: 1.1; G2 cells, % of GMNN control: 10.7

With STIL (GeneID 6491) #2, what does the deposit list?
G2 robust z-score: 1.27; G2 cells, % of GMNN control: 11.9

Which result is listed for STIL (GeneID 6491) #3?
G2 robust z-score: 1.98; G2 cells, % of GMNN control: 16.9

Which result is listed for COL9A2 (GeneID 1298) #1?
G2 robust z-score: -1.16; G2 cells, % of GMNN control: -5.18

How did the screen score COL9A2 (GeneID 1298) #2?
G2 robust z-score: 1.49; G2 cells, % of GMNN control: 13.4

What did the screen give for COL9A2 (GeneID 1298) #3?
G2 robust z-score: -0.556; G2 cells, % of GMNN control: -0.947

With GCSAML (GeneID 148823) #1, what does the deposit list?
G2 robust z-score: -0.933; G2 cells, % of GMNN control: -3.59

Which result is listed for GCSAML (GeneID 148823) #2?
G2 robust z-score: -0.516; G2 cells, % of GMNN control: -0.662

With GCSAML (GeneID 148823) #3, what was measured?
G2 robust z-score: -0.4; G2 cells, % of GMNN control: 0.151

Records above whose target name starts with H or h (3):
HCLS1 (GeneID 3059) #1 | G2 robust z-score = 0.34; G2 cells, % of GMNN control = 5.36
HCLS1 (GeneID 3059) #2 | G2 robust z-score = 0.96; G2 cells, % of GMNN control = 9.72
HCLS1 (GeneID 3059) #3 | G2 robust z-score = 1.53; G2 cells, % of GMNN control = 13.7
